This is one part of the list.

Chains of the proteins cited; added tags and fusions are not shown. Lines headed by an entry give the natural chain unless they say otherwise; changes in a name come on top.
UniProt P41162: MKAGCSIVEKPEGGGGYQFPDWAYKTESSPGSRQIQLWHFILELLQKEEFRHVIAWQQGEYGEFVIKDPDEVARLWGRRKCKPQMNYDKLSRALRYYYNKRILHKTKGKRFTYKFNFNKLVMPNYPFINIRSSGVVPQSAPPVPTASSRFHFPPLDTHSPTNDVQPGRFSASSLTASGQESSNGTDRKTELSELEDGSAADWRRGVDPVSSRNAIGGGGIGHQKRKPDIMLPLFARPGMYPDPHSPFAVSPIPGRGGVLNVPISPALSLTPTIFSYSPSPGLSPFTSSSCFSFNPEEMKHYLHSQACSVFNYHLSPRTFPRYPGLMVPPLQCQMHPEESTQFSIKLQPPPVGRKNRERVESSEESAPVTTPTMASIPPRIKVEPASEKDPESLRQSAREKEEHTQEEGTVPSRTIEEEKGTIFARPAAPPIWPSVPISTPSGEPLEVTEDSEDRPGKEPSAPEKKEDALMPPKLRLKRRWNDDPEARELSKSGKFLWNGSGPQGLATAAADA
UniProt H0Y354, whole entry, looked up: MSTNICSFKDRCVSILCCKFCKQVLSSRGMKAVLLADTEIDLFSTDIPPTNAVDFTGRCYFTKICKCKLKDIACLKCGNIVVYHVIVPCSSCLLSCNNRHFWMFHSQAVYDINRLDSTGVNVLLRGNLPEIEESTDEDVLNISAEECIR
UniProt P50549: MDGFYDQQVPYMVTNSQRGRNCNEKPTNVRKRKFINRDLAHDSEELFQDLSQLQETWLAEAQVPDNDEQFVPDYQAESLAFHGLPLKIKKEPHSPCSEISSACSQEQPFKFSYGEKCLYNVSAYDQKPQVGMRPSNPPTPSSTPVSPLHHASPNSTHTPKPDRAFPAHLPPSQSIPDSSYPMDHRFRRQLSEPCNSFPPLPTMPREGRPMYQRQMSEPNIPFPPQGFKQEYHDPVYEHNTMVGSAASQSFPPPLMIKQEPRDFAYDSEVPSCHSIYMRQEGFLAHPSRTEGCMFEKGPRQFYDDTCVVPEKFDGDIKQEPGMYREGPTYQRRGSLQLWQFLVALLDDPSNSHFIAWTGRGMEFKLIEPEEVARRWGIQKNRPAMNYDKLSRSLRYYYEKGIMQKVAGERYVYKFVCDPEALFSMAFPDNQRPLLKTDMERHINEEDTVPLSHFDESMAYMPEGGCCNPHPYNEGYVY
UniProt Q56NI9: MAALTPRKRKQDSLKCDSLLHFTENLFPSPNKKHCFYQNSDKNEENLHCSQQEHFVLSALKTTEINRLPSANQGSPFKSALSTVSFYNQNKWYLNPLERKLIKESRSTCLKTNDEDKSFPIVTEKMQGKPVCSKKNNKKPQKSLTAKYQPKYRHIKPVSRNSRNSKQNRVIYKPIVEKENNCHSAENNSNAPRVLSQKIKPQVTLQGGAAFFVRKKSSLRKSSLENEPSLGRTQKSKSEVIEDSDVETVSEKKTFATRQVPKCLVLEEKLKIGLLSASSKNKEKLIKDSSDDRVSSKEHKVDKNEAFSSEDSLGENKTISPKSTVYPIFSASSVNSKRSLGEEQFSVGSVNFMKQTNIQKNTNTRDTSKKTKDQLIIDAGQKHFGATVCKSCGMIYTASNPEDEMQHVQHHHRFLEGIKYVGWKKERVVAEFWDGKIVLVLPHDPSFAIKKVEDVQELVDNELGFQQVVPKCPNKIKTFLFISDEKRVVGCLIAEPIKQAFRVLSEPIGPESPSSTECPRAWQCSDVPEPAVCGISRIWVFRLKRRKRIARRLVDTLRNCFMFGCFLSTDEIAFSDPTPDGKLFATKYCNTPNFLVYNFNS
UniProt Q5VUB5: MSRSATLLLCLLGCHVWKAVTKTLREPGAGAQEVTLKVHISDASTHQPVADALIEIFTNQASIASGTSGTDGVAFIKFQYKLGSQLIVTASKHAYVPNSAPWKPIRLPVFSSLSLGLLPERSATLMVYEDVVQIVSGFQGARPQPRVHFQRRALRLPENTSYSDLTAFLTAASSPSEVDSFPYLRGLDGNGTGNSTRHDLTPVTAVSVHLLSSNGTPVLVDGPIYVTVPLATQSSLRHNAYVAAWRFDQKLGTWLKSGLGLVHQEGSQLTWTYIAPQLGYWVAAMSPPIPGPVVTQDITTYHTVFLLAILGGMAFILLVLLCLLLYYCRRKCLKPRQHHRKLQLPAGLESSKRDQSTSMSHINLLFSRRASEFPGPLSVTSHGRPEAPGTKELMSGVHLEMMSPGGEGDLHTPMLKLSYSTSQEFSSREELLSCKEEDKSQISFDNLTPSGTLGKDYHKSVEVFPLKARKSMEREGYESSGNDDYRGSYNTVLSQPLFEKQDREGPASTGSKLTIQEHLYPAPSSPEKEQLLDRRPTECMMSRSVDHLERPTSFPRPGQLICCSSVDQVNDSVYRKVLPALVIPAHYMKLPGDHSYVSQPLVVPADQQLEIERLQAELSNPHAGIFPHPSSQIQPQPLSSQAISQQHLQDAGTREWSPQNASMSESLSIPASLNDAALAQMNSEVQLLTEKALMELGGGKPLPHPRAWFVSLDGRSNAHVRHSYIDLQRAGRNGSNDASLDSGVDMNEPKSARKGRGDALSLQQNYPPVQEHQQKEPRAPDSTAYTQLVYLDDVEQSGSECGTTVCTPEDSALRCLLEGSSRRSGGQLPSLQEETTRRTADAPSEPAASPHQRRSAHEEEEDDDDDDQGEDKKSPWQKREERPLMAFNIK
UniProt P41212: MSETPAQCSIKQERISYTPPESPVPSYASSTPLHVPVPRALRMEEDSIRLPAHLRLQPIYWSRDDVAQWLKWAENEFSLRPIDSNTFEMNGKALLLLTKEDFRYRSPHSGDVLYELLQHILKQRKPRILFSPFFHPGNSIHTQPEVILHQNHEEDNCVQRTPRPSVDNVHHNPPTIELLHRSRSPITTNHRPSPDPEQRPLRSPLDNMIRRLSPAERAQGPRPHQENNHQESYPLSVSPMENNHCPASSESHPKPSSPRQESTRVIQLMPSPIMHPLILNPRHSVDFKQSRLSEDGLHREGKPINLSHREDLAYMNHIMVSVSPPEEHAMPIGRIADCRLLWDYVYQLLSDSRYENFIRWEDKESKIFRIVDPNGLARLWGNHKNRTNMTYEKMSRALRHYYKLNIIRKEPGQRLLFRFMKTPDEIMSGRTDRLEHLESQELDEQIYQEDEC
UniProt B1AK53: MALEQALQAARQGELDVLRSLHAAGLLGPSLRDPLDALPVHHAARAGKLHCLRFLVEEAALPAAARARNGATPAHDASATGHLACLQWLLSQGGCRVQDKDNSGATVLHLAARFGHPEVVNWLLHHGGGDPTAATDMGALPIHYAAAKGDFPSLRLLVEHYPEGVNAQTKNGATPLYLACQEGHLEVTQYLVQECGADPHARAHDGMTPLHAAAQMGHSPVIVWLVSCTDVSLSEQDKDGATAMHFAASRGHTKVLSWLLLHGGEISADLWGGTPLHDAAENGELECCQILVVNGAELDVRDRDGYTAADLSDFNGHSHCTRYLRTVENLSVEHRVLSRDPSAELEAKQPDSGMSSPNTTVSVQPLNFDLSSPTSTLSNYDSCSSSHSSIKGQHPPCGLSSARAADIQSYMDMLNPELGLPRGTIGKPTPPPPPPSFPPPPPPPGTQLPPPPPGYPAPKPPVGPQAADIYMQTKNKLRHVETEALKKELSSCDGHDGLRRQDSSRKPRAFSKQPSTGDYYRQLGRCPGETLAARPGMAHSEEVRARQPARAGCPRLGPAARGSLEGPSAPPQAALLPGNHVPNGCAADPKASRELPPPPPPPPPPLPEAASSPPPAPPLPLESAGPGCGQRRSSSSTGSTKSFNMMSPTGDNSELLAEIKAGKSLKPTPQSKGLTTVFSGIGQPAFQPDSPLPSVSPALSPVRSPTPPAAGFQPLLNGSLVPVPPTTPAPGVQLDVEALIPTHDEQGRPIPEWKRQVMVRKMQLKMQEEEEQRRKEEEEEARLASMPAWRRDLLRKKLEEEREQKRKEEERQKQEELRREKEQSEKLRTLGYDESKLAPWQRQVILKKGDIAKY
UniProt O43909: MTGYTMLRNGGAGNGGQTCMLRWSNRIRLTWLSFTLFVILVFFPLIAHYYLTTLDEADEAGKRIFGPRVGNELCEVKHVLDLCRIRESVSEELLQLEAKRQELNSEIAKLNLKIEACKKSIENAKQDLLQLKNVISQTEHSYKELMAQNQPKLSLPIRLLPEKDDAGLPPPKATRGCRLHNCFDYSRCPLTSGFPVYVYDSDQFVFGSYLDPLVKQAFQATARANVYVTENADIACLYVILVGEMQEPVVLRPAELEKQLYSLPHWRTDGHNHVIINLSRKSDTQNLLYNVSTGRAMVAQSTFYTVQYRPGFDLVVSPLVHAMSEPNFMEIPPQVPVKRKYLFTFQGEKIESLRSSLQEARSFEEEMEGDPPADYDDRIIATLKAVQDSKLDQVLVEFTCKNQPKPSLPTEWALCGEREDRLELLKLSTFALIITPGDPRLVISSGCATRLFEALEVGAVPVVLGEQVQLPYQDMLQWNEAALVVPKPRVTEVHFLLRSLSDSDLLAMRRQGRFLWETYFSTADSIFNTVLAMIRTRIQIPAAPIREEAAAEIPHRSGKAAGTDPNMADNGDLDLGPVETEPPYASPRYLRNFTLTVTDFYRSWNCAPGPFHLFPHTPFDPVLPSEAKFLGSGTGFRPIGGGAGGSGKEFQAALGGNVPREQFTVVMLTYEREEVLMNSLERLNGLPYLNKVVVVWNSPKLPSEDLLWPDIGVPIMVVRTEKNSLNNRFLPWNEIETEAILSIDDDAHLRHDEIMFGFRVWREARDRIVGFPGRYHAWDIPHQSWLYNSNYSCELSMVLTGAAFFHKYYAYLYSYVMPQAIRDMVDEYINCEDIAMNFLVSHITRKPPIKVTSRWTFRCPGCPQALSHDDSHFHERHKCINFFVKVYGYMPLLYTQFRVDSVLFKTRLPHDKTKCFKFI
UniProt O95718: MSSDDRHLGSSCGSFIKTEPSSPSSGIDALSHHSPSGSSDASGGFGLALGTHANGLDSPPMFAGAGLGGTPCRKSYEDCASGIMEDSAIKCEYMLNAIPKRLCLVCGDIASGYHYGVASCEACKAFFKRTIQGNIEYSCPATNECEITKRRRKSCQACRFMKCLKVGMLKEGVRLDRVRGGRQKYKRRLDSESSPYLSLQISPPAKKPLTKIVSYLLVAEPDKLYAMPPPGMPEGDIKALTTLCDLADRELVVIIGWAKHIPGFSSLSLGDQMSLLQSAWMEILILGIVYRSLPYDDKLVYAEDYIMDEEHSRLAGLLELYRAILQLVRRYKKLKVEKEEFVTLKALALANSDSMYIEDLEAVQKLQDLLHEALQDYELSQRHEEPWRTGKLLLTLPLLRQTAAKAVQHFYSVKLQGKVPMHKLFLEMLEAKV
UniProt Q9H790: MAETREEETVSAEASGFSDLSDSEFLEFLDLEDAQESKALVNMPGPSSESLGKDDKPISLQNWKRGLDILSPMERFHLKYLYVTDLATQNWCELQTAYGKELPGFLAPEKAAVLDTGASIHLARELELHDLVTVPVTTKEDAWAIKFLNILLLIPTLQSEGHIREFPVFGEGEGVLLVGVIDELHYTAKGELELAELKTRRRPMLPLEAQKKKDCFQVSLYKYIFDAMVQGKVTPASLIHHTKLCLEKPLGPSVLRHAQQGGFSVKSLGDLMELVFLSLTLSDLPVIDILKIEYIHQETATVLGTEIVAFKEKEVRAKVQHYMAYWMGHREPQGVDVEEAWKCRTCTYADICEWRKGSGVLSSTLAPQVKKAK
UniProt Q9H8W3: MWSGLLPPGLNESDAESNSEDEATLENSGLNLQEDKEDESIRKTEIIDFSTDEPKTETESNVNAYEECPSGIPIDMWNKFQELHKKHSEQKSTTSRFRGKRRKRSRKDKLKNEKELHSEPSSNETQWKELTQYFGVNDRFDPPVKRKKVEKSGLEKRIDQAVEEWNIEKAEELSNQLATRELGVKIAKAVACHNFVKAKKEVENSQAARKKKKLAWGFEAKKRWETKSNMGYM
UniProt Q9NVM1: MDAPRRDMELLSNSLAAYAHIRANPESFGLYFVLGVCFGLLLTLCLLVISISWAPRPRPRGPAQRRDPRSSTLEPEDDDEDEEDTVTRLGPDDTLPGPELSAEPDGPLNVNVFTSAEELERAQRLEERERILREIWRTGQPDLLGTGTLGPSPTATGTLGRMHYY
UniProt Q9NYF3: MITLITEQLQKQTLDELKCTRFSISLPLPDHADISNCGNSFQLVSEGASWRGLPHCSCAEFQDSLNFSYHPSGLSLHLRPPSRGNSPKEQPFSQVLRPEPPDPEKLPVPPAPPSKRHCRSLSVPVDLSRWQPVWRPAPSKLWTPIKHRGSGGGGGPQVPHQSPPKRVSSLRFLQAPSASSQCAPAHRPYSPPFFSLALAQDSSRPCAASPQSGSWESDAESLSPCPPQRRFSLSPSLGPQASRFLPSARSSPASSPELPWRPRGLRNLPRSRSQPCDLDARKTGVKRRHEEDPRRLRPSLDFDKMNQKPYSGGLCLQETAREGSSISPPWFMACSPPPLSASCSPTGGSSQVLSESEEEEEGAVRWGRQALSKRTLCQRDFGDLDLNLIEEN

Compound in the experiment: C1COCCN1CCN2C3=CC=CC=C3N=C2NC(=O)C4=CC(=CC=C4)[N+](=O)[O-] [IRAK-1-4 Inhibitor I]
As to the kind of experiment: log2 fold change, soluble protein after heating vs DMSO (PISA); higher = thermal stabilisation; K562 lysate, 10 uM; active = over 0.2 and 3.5 SD of the protein, either way, in both replicates (recomputed). The method, boiled down:
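Following dounce homogenisation of K562 pellets in PBS pH 7.4 with 1 mM MgCl2, crude extract at 1 mg/mL protein was incubated for 30 min with 10 μM compound. Aliquots were then heated for 3 min over 48°C-58°C and pooled, NP-40 was added to 0.5% at 4°C, and soluble protein was recovered as the supernatant at 21,000xg for 90 min. Channel-sum-equalised TMTpro 16plex LC-MS/MS quantified this protein. Each value, from duplicates, is a log-two fold change in thermal stability relative to solvent controls.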
On to ETV3 (UniProt P41162), for which the log2 fold change is inactive: 0.019.
FAM219A (UniProt Q8IW50): the log2 fold change is inactive: 0.106.
For EWSR1 (UniProt H7BY36) the value was inactive: -0.074; for FAM135A (UniProt Q9P2D6), inactive: 0.048; for FAH isoform 2 (UniProt P16930), inactive: -0.036.
For FAM72C (UniProt H0Y354) the value was inactive: 0.254; for ETV1 (UniProt P50549), inactive: -0.086; for FAM234B (UniProt A2RU67), inactive: -0.091.
Take FAM104A isoform 2 (UniProt Q969W3): the log2 fold change was inactive: 0.013.
For ESCO2 (UniProt Q56NI9) the value was inactive: -0.098; for FAM171A1 (UniProt Q5VUB5), inactive: 0.074; for ETV6 (UniProt P41212), inactive: 0.088.
In the case of ESPN (UniProt B1AK53), the log2 fold change is inactive: -0.009.
On to FAM49B, A0A1W2PRQ0, for which the log2 fold change was inactive: -0.121.
For EXTL3 (UniProt O43909) the value was inactive: -0.02.
As for ESRRB isoform 1 (UniProt O95718), the figure is inactive: 0.236; as for FAM120A, A0A494C0Y9, inactive: 0.131; as for EXO5 (UniProt Q9H790), inactive: -0.028.
For FAM3A (UniProt Q9BU27) the value was inactive: 0.068; for FAM13A (UniProt O94988), inactive: 0.177.
With FAM204A (UniProt Q9H8W3), the log2 fold change is inactive: 0.01.
As for FAM122B isoform 2 (UniProt Q7Z309), the figure is inactive: 0.01.
As for EVA1B (UniProt Q9NVM1), the figure is inactive: 0.217.
For F2 (UniProt P00734) the value was inactive: 0.056.
As to FAM53C (UniProt Q9NYF3), the log2 fold change was inactive: 0.036.

Source of the values: the supplement of paper PMC10849652.
